This series deals with bull sperm. As to the kind of experiment: Internalization of cell penetrating peptides in fresh bull sperm, microscopy and flow cytometry (Example 8). To be noted: for binding to and penetration of fresh bull sperm: fluorescent-labelled peptide, FIGS. 10-11. Format: cell-based. In general terms: In flow cytometry, cells or beads pass a laser one at a time.

“Also recorded” adds a separate entry of the source.

For D-Arg-DMT-Lys-Phe [SS31], the “binding to and penetration of fresh bull sperm” value is “bind with live sperm; also recorded: penetrated the fresh sperm”. Besides, the “uptake by live sperm, SS31 vs mTP4” value (flow cytometry, FIG. 11) was “significantly higher than mTP4”.
Take DMT-D-MWWRRSRTNSLRYT [mTP4]: the “binding to and penetration of fresh bull sperm” value was “bind with live sperm; also recorded: penetrated the fresh sperm”.

Source of the values: patent US11819019B2, “Protein-free semen cryopreservation” (University of Saskatchewan, priority 2017, dated 2023).
